Values of other authors, collected in patent US6395752B1, “Method of treating depression using 1-threo-methylphenidate” (Pharmaquest Limited, priority 1999, dated 2002).
At least one compound was matched to its structure with a doubt left.

Settings: plasma; i.v. 10 mg d1-MPH; 11 healthy male volunteers; mean ± SD; cited from earlier work

In the case of `COC(=O)[C@H](c1ccccc1)[C@H]1CCCCN1` [d-MPH, d-threo-methylphenidate], the t1/2 is given as 5.96 ± 1.71.
